Data reported in the supplement of paper PMC10849652.
The list shows a part of the results.

The chains behind the UniProt entries cited, without tags or fusion partners. Where a name states a change or a piece, a line headed by the entry shows the natural chain unless it says otherwise.
UniProt Q6PIU2: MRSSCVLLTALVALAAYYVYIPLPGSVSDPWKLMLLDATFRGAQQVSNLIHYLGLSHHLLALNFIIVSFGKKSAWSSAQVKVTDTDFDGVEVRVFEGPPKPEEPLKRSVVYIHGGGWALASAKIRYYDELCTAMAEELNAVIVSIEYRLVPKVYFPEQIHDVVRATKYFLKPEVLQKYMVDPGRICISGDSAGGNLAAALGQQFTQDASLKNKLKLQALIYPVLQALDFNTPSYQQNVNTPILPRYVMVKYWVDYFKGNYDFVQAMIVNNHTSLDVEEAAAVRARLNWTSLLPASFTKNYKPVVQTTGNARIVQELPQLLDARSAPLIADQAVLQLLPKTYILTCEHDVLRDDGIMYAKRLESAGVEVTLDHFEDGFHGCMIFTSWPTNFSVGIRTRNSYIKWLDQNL
UniProt Q6N069: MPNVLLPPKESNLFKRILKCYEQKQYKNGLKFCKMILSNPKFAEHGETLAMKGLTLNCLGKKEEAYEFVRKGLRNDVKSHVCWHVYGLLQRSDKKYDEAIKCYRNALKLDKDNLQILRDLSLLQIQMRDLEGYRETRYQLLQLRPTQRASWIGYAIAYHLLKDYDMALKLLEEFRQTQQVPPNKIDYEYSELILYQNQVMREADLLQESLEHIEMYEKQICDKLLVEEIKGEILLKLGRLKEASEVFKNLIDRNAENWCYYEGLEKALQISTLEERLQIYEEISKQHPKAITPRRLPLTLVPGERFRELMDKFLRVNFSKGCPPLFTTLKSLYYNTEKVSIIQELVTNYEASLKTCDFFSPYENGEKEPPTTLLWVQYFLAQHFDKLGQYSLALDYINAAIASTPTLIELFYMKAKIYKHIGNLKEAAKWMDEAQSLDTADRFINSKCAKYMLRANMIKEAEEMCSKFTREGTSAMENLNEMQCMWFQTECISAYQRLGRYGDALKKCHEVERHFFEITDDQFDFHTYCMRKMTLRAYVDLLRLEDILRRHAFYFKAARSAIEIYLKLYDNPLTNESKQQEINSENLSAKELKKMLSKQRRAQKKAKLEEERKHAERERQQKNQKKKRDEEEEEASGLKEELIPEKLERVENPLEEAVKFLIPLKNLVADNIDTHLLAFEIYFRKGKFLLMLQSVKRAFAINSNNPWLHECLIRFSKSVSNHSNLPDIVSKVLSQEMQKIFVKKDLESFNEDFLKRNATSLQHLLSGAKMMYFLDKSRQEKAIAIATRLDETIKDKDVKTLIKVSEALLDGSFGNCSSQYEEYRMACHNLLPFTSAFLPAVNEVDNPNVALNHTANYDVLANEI
UniProt P28331, whole entry, looked up: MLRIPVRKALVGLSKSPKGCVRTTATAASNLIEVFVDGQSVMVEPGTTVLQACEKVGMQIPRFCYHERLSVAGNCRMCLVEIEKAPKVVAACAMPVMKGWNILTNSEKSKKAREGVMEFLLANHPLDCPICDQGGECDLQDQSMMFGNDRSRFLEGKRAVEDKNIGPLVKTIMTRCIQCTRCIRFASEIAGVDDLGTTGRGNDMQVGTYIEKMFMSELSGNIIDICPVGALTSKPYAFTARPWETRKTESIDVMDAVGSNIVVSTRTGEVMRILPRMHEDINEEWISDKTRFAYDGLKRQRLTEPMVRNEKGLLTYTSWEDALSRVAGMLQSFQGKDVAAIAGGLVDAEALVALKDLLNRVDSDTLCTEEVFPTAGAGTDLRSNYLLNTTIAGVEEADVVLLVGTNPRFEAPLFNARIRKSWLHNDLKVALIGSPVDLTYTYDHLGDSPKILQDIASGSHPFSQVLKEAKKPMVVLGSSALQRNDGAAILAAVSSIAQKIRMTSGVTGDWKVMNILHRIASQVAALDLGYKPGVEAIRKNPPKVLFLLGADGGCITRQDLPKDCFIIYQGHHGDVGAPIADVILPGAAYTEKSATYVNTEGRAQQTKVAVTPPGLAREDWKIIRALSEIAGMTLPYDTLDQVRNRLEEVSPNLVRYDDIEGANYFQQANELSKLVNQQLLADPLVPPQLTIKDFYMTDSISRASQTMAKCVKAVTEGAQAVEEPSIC
UniProt Q96NT1: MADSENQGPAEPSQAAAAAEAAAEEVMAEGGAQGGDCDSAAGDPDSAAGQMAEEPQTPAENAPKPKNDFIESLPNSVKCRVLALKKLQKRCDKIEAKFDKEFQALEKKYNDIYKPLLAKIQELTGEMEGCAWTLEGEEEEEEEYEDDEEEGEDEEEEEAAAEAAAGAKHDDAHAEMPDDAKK
UniProt Q8IW45: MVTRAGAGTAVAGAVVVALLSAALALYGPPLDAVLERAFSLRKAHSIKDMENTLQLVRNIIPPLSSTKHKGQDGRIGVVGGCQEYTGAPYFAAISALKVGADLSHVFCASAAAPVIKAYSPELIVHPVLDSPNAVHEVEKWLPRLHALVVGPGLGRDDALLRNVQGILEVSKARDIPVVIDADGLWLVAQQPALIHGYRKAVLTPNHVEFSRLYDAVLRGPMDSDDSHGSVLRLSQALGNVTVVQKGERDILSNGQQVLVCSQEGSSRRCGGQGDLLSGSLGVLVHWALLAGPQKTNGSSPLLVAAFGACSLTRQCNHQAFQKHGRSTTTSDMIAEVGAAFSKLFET
UniProt Q9GZZ1: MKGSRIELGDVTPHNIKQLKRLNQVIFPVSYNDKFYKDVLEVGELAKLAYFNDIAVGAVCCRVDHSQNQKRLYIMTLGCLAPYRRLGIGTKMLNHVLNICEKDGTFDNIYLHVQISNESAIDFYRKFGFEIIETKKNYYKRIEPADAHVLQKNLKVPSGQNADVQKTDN
UniProt P12036: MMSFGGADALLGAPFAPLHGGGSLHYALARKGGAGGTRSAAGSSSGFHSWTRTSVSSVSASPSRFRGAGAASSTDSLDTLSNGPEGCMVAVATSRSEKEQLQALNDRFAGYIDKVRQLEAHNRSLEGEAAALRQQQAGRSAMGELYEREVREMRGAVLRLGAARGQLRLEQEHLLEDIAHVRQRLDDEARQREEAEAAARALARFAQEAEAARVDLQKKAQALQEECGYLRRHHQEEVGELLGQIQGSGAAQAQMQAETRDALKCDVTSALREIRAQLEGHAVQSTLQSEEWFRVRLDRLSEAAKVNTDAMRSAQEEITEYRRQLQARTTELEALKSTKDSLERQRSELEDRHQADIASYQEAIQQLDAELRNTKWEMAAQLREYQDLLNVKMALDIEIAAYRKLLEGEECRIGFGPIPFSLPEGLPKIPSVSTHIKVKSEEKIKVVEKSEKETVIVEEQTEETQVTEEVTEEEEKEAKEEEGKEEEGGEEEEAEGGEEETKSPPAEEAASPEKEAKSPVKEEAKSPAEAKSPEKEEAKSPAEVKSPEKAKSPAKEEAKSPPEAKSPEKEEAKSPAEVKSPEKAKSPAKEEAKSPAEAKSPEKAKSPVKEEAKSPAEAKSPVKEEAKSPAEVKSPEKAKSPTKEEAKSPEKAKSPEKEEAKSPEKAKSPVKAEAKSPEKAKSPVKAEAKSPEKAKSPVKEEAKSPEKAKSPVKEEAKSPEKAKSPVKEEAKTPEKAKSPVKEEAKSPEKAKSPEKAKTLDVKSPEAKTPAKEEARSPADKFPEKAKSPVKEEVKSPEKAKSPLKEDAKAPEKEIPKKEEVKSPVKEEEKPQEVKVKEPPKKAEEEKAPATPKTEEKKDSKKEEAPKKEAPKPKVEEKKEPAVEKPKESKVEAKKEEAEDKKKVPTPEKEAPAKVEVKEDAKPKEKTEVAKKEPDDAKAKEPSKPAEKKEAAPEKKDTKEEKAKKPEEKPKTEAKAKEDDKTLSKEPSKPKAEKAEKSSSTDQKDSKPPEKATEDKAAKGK
UniProt Q9Y6M9, whole entry, looked up: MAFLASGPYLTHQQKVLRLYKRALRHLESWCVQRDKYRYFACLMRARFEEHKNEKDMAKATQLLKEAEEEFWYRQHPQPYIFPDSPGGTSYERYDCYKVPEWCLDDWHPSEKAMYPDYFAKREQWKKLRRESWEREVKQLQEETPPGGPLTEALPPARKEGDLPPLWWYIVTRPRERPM
UniProt Q8NHV4, whole entry, looked up: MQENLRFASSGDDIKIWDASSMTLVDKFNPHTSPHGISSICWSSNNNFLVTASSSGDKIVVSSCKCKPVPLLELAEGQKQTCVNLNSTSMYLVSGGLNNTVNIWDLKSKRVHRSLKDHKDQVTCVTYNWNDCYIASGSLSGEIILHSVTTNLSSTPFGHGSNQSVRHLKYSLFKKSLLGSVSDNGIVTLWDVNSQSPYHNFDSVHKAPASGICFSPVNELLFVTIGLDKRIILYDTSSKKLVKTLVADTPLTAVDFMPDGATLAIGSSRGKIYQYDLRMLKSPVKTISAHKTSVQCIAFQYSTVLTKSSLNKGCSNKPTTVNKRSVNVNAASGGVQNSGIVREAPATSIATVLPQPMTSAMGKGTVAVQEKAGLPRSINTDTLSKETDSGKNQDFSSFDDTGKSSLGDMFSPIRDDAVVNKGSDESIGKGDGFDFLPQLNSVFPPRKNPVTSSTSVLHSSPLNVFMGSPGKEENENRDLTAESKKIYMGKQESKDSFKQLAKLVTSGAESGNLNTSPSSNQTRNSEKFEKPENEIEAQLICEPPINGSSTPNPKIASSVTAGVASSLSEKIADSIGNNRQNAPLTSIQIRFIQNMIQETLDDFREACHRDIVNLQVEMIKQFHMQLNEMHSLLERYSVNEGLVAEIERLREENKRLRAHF
UniProt O43676, whole entry, looked up: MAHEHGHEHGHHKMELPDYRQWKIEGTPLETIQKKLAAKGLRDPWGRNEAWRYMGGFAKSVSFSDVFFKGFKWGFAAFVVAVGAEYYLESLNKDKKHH
UniProt O14777: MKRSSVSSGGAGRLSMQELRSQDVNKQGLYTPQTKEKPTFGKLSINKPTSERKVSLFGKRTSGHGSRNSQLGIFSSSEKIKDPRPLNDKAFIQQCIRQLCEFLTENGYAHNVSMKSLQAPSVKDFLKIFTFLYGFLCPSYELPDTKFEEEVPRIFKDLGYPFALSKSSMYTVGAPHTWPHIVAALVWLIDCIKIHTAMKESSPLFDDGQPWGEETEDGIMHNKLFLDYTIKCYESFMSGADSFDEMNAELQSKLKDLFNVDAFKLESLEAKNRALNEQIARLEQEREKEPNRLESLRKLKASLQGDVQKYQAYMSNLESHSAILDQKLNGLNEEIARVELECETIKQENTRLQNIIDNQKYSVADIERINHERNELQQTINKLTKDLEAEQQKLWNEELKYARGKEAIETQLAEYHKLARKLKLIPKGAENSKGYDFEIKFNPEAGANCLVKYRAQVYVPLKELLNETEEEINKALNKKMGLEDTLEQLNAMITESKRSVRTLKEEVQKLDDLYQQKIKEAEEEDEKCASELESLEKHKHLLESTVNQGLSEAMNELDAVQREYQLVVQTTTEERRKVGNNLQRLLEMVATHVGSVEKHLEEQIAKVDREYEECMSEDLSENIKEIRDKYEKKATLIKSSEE
UniProt Q9Y375: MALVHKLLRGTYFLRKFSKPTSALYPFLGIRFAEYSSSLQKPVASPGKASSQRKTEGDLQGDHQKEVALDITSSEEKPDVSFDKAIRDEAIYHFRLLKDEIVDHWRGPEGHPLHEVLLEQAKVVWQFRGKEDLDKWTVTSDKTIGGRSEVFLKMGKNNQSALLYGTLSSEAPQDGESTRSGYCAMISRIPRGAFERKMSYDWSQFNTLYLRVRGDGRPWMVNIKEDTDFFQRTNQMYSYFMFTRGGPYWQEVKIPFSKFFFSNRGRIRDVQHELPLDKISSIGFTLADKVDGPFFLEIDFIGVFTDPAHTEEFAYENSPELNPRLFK
UniProt P61599, whole entry, looked up: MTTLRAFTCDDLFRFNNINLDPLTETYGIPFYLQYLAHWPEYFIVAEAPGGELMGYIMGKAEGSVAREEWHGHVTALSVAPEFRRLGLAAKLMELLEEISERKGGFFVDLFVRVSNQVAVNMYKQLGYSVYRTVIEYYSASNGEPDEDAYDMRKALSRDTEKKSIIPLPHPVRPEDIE
UniProt O95139, whole entry, looked up: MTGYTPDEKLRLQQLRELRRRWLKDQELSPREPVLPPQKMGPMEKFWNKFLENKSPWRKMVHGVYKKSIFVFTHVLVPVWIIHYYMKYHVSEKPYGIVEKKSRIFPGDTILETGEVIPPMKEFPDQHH

Experiments:
Test in all cases: log2 fold change, soluble protein after heating vs DMSO (PISA); higher = thermal stabilisation; K562 cells, 10 uM, 30 min; active = over 0.2 and 3.5 SD of the protein, either way, in both replicates (recomputed)
[1] = compound: COC1=CC=C(C=C1)CN2C=CC3=C2C=C(C=C3)C(=O)NO
Procedure, shortened: (§1)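 For each measurement, 10 μM compound was applied for 30 min to K562 cells at 2×10^6 cells/mL. Aliquots were heated for 3 min across 48°C-58°C, pooled, and extracted in PBS with 0.5% NP-40 at 4°C; the supernatant after 21,000xg for 90 min was soluble protein. This was quantified by TMTpro 16plex LC-MS/MS with channel sums equalised, and thermal stability was reported relative to control samples from duplicates, on a log2 fold-change scale.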

filanesib = compound: CON(C)C(=O)N1N=C(c2cc(F)ccc2F)S[C@@]1(CCCN)c1ccccc1 [filanesib]
Procedure, shortened: as §1

zotarolimus = compound: CO[C@H]1C[C@@H]2CC[C@@H](C)[C@@](O)(O2)C(=O)C(=O)N2CCCC[C@H]2C(=O)O[C@H]([C@H](C)C[C@@H]2CC[C@H](n3cnnn3)[C@H](OC)C2)CC(=O)[C@H](C)/C=C(\C)[C@@H](O)[C@@H](OC)C(=O)[C@H](C)C[C@H](C)/C=C/C=C/C=C/1C [zotarolimus]
Procedure, shortened: as §1

idasanutlin = compound: COc1cc(C(=O)O)ccc1NC(=O)[C@@H]1N[C@@H](CC(C)(C)C)[C@](C#N)(c2ccc(Cl)cc2F)[C@H]1c1cccc(Cl)c1F [idasanutlin]
Procedure, shortened: as §1

alisertib = compound: COc1cc(Nc2ncc3c(n2)-c2ccc(Cl)cc2C(c2c(F)cccc2OC)=NC3)ccc1C(=O)O [alisertib]
Procedure, shortened: as §1

[2] = compound: COc1cc2nc(-c3cc(F)ccc3O)nc(N[C@@H]3CNC[C@H]3C(C)(C)O)c2cc1OC
Procedure, shortened: as §1

gefitinib = compound: COc1cc2ncnc(Nc3ccc(F)c(Cl)c3)c2cc1OCCCN1CCOCC1 [gefitinib]
Procedure, shortened: as §1

[3] = compound: COc1cccc2cc(-c3nc([C@H]4CC[C@H](C(=O)O)CC4)n4ncnc(N)c34)[nH]c12
Procedure, shortened: as §1

lapatinib = compound: CS(=O)(=O)CCNCc1ccc(-c2ccc3ncnc(Nc4ccc(OCc5cccc(F)c5)c(Cl)c4)c3c2)o1 [lapatinib]
Procedure, shortened: as §1

pictilisib = compound: CS(=O)(=O)N1CCN(Cc2cc3nc(-c4cccc5[nH]ncc45)nc(N4CCOCC4)c3s2)CC1 [pictilisib]
Procedure, shortened: as §1

[4] = compound: CS(=O)(=O)c1ccc(-c2cnc(N)c(C(=O)Nc3ccccc3)n2)cc1
Procedure, shortened: as §1

crizotinib = compound: C[C@@H](Oc1cc(-c2cnn(C3CCNCC3)c2)cnc1N)c1c(Cl)ccc(F)c1Cl [crizotinib]
Procedure, shortened: as §1

[5] = compound: C[C@@H]1COCCN1C2=NC(=NC(=C2)C3(CC3)S(=O)(=O)C)C4=C5C=CNC5=CC=C4
Procedure, shortened: as §1

[6] = compound: C[C@H](C1=CC=C(C=C1)C(=O)NC2=C3C=CNC3=NC=C2)N
Procedure, shortened: as §1

duvelisib = compound: C[C@H](Nc1ncnc2nc[nH]c12)c1cc2cccc(Cl)c2c(=O)n1-c1ccccc1 [duvelisib]
Procedure, shortened: as §1

gandotinib = compound: Cc1cc(Nc2cc(CN3CCOCC3)c3nc(C)c(Cc4ccc(Cl)cc4F)n3n2)n[nH]1 [gandotinib]
Procedure, shortened: as §1

tozasertib = compound: Cc1cc(Nc2cc(N3CCN(C)CC3)nc(Sc3ccc(NC(=O)C4CC4)cc3)n2)n[nH]1 [tozasertib]
Procedure, shortened: as §1

[7] = compound: Cc1cc(SCc2sc(-c3ccc(C(F)(F)F)cc3)nc2C)ccc1OCC(=O)O
Procedure, shortened: as §1

doramapimod = compound: Cc1ccc(-n2nc(C(C)(C)C)cc2NC(=O)Nc2ccc(OCCN3CCOCC3)c3ccccc23)cc1 [doramapimod]
Procedure, shortened: as §1

ispinesib = compound: Cc1ccc(C(=O)N(CCCN)[C@@H](c2nc3cc(Cl)ccc3c(=O)n2Cc2ccccc2)C(C)C)cc1 [ispinesib]
Procedure, shortened: as §1

Measured: log2 fold change

NCEH1 isoform 2 (UniProt Q6PIU2)
inactive: [1] -0.042 | filanesib -0.025 | zotarolimus -0.024 | idasanutlin -0.058 | alisertib -0.055 | [2] -0.024 | gefitinib -0.002 | [3] 0.05 | lapatinib -0.024 | pictilisib -0.014 | [4] 0.007 | crizotinib 0.002 | [5] 0.047 | [6] -0.061 | duvelisib 0.029 | gandotinib -0.036 | tozasertib -0.01 | [7] -0.037 | doramapimod 0.059 | ispinesib 0.037

NAA16 (UniProt Q6N069)
inactive: [1] -0.032 | filanesib -0.001 | zotarolimus 0.096 | idasanutlin 0.011 | alisertib 0.04 | [2] 0.048 | gefitinib 0 | [3] -0.002 | lapatinib -0.002 | pictilisib -0.015 | [4] -0.005 | crizotinib -0.047 | [5] 0.052 | [6] 0.017 | duvelisib 0.019 | gandotinib 0.012 | tozasertib -0.021 | [7] 0.021 | doramapimod 0.045 | ispinesib 0.005

NDUFS1 isoform 2 (UniProt P28331)
inactive: [1] -0.045 | filanesib -0.094 | zotarolimus 0.024 | idasanutlin -0.162 | alisertib -0.01 | [2] 0.018 | gefitinib -0.016 | [3] 0.011 | lapatinib -0.03 | pictilisib -0.007 | [4] 0.024 | crizotinib -0.071 | [5] 0.068 | [6] -0.023 | duvelisib 0.013 | gandotinib -0.08 | tozasertib -0.023 | [7] 0.06 | doramapimod -0.018 | ispinesib -0.106

NAP1L5 (UniProt Q96NT1)
inactive: [1] 0 | filanesib -0.023 | zotarolimus -0.003 | idasanutlin 0.09 | alisertib -0.005 | [2] 0.072 | gefitinib -0.006 | [3] 0.017 | lapatinib 0.034 | pictilisib -0.055 | [4] 0.003 | crizotinib 0.011 | [5] -0.162 | [6] 0.009 | duvelisib -0.042 | gandotinib -0.002 | tozasertib -0.025 | [7] -0.022 | doramapimod 0.106 | ispinesib 0.036

NAXD (UniProt Q8IW45)
inactive: [1] -0.038 | filanesib -0.014 | zotarolimus -0.012 | idasanutlin -0.008 | alisertib -0.068 | [2] -0.039 | gefitinib -0.007 | [3] -0.053 | lapatinib 0.018 | pictilisib -0.003 | [4] -0.016 | crizotinib 0.064 | [5] -0.041 | [6] -0.069 | duvelisib -0.012 | gandotinib 0.122 | tozasertib 0 | [7] -0.029 | doramapimod -0.002 | ispinesib 0.026

NAA50 (UniProt Q9GZZ1)
inactive: [1] 0.146 | filanesib -0.115 | zotarolimus 0.049 | idasanutlin 0.011 | alisertib -0.005 | [2] -0.018 | gefitinib 0.006 | [3] 0.033 | lapatinib 0.009 | pictilisib -0.045 | [4] -0.002 | crizotinib 0.011 | [5] 0.027 | [6] -0.153 | duvelisib 0.034 | gandotinib 0.05 | tozasertib -0.017 | [7] 0.009 | doramapimod -0.095 | ispinesib 0.079

NEFH (UniProt P12036)
inactive: [1] -0.092 | filanesib 0.305 | zotarolimus 0.066 | idasanutlin 0.236 | alisertib -0.378 | [2] -0.18 | gefitinib -0.055 | [3] -0.4 | lapatinib 0.086 | pictilisib -0.067 | [4] 0.021 | crizotinib 0.202 | [5] -0.279 | [6] 0.161 | duvelisib -0.213 | gandotinib 0.156 | tozasertib 0.334 | [7] 0.085 | doramapimod 0.106 | ispinesib -0.141

NDUFB9 (UniProt Q9Y6M9)
inactive: [1] -0.05 | filanesib -0.019 | zotarolimus 0.008 | idasanutlin -0.027 | alisertib -0.076 | [2] 0.072 | gefitinib -0.02 | [3] 0.03 | lapatinib -0.038 | pictilisib 0.062 | [4] -0.009 | crizotinib 0.04 | [5] 0.074 | [6] -0.037 | duvelisib 0.029 | gandotinib 0.093 | tozasertib -0.001 | [7] 0.036 | doramapimod -0.031 | ispinesib 0.097

NEDD1 isoform 3 (UniProt Q8NHV4)
inactive: [1] -0.005 | filanesib -0.003 | zotarolimus -0.004 | idasanutlin -0.018 | alisertib -0.031 | [2] 0.025 | gefitinib 0.01 | [3] 0.03 | lapatinib -0.058 | pictilisib 0.153 | [4] 0 | crizotinib 0.016 | [5] -0.006 | [6] -0.027 | duvelisib 0.041 | gandotinib -0.049 | tozasertib -0.027 | [7] -0.024 | doramapimod 0.001 | ispinesib 0.019

Copied from above (three entries):
NAA16 (UniProt Q6N069)
inactive: [1] -0.032 | filanesib -0.001 | zotarolimus 0.096 | idasanutlin 0.011 | alisertib 0.04 | [2] 0.048 | gefitinib 0 | [3] -0.002 | lapatinib -0.002 | pictilisib -0.015 | [4] -0.005 | crizotinib -0.047 | [5] 0.052 | [6] 0.017 | duvelisib 0.019 | gandotinib 0.012 | tozasertib -0.021 | [7] 0.021 | doramapimod 0.045 | ispinesib 0.005

NDUFS1 isoform 2 (UniProt P28331)
inactive: [1] -0.045 | filanesib -0.094 | zotarolimus 0.024 | idasanutlin -0.162 | alisertib -0.01 | [2] 0.018 | gefitinib -0.016 | [3] 0.011 | lapatinib -0.03 | pictilisib -0.007 | [4] 0.024 | crizotinib -0.071 | [5] 0.068 | [6] -0.023 | duvelisib 0.013 | gandotinib -0.08 | tozasertib -0.023 | [7] 0.06 | doramapimod -0.018 | ispinesib -0.106

NAP1L5 (UniProt Q96NT1)
inactive: [1] 0 | filanesib -0.023 | zotarolimus -0.003 | idasanutlin 0.09 | alisertib -0.005 | [2] 0.072 | gefitinib -0.006 | [3] 0.017 | lapatinib 0.034 | pictilisib -0.055 | [4] 0.003 | crizotinib 0.011 | [5] -0.162 | [6] 0.009 | duvelisib -0.042 | gandotinib -0.002 | tozasertib -0.025 | [7] -0.022 | doramapimod 0.106 | ispinesib 0.036

Next results:

NDUFB3 (UniProt O43676)
inactive: [1] -0.047 | filanesib -0.003 | zotarolimus -0.029 | idasanutlin -0.003 | alisertib -0.021 | [2] -0.058 | gefitinib -0.03 | [3] 0.068 | lapatinib -0.005 | pictilisib 0.051 | [4] 0.019 | crizotinib -0.044 | [5] 0 | [6] -0.022 | duvelisib 0.04 | gandotinib -0.054 | tozasertib -0.033 | [7] 0.018 | doramapimod -0.002 | ispinesib -0.005

NAA35 (UniProt Q5VZE5)
inactive: [1] -0.036 | filanesib -0.063 | zotarolimus 0.016 | idasanutlin -0.021 | alisertib 0.079 | [2] 0.026 | gefitinib 0.002 | [3] -0.033 | lapatinib -0.005 | pictilisib -0.001 | [4] 0.042 | crizotinib -0.069 | [5] -0.013 | [6] -0.026 | duvelisib 0.027 | gandotinib -0.023 | tozasertib -0.061 | [7] 0.022 | doramapimod 0.025 | ispinesib 0.007

NDC80 (UniProt O14777)
inactive: [1] -0.072 | filanesib 0.243 | zotarolimus -0.01 | idasanutlin 0.051 | alisertib 0.009 | [2] 0.161 | gefitinib -0.132 | [3] -0.011 | lapatinib -0.112 | pictilisib 0.134 | [4] 0.056 | crizotinib -0.121 | [5] -0.184 | [6] 0.364 | duvelisib -0.055 | gandotinib 0.01 | tozasertib 0.067 | [7] 0.126 | doramapimod 0.223 | ispinesib -0.202

NDUFAF1 (UniProt Q9Y375)
inactive: [1] 0.025 | filanesib -0.028 | zotarolimus -0.061 | idasanutlin -0.061 | alisertib -0.027 | [2] -0.013 | gefitinib -0.022 | [3] 0.034 | lapatinib -0.009 | pictilisib -0.022 | [4] 0.011 | crizotinib -0.032 | [5] 0.027 | [6] -0.043 | duvelisib 0.072 | gandotinib -0.004 | tozasertib -0.053 | [7] -0.067 | doramapimod 0 | ispinesib -0.023

NAA20 (UniProt P61599)
inactive: [1] -0.099 | filanesib -0.066 | zotarolimus 0.058 | idasanutlin -0.082 | alisertib 0.078 | [2] -0.01 | gefitinib 0.025 | [3] 0.059 | lapatinib -0.031 | pictilisib -0.01 | [4] 0.052 | crizotinib -0.05 | [5] 0.187 | [6] -0.002 | duvelisib 0.045 | gandotinib -0.077 | tozasertib 0.018 | [7] 0.024 | doramapimod 0.047 | ispinesib 0.076

NAA15, A0A0B4J1W3
inactive: [1] 0.118 | filanesib 0.131 | zotarolimus 0.019 | idasanutlin -0.118 | alisertib 0.1 | [2] 0.076 | gefitinib -0.043 | [3] -0.078 | lapatinib -0.117 | pictilisib 0.016 | [4] -0.15 | crizotinib -0.009 | [5] 0.088 | [6] -0.083 | duvelisib 0.151 | gandotinib -0.123 | tozasertib -0.006 | [7] 0.069 | doramapimod -0.237 | ispinesib 0.105

NDUFB6 (UniProt O95139)
inactive: [1] -0.046 | filanesib -0.056 | zotarolimus -0.029 | idasanutlin 0 | alisertib 0.026 | [2] -0.128 | gefitinib -0.018 | [3] 0.092 | lapatinib -0.099 | pictilisib 0.04 | [4] 0.021 | crizotinib 0.024 | [5] -0.056 | [6] -0.094 | duvelisib 0.026 | gandotinib 0.035 | tozasertib -0.003 | [7] -0.1 | doramapimod -0.033 | ispinesib -0.054
